Test: peptide synthesis
Conditions: conjugation step, SEC-HPLC (Agilent Advance Bio SEC 4.6*300 mm, isocratic, 25 min)

| Substance | purity (crude or final not stated) [%] |
| --- | --- |
| CKKEE-MM-muExemplary Target 1 | 91 |
| CKKEE-MM-huHPRT | 86 |
| CKKEE-MM-muHPRT | 86 |
